For one assay, the target named is SZT2 (no tag named) (UniProt Q5T011). Briefly: co-IP; cells transfected with siCtrl or siVWCE and the indicated cDNAs; Triton X-100 lysis buffer, FLAG or HA agarose beads 2 h at 4 °C, washes with 150 mM NaCl; immunoblotting.
In a further assay the target is HA-DEPDC5 (UniProt O75140). The assay is described as above.
The target of assay [1] is T1, FLAG-tagged VWCE (von Willebrand factor C and EGF domains) (UniProt Q96DN2).
T1 sequence: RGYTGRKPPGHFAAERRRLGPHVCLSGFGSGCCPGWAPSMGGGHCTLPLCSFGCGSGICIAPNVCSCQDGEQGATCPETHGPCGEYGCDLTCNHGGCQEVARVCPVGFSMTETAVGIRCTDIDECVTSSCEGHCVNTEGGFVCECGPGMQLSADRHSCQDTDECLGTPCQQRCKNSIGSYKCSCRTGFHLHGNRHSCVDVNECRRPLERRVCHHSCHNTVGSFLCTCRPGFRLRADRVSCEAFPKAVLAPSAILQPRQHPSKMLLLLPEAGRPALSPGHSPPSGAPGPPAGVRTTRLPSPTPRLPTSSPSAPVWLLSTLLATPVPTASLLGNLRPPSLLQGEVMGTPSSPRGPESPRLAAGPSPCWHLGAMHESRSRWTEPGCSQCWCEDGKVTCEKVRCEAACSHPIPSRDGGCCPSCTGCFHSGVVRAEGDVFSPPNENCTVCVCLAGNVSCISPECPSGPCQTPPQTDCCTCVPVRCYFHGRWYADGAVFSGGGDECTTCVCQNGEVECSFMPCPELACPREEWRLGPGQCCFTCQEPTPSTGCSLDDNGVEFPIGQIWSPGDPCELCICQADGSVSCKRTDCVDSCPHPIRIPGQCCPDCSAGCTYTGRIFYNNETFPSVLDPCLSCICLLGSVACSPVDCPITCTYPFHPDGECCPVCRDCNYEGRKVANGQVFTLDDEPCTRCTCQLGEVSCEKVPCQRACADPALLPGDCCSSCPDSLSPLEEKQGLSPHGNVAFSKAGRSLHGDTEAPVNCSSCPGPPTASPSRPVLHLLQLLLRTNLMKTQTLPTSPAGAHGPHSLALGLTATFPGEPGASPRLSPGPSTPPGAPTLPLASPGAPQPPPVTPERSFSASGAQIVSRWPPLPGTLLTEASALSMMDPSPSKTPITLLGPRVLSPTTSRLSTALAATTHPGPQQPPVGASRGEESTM
Put plainly: co-IP; cells stably expressing FLAG-tagged VWCE transfected with HA-tagged cDNAs; amino acid starvation or restimulation before lysis; also in cells knocked out for KICSTOR components, GATOR1 or GATOR2; Triton X-100 lysis buffer, FLAG or HA agarose beads 2 h at 4 °C, washes with 150 mM NaCl ….

The chains behind the UniProt entries cited, without tags or fusion partners.
UniProt Q5T011: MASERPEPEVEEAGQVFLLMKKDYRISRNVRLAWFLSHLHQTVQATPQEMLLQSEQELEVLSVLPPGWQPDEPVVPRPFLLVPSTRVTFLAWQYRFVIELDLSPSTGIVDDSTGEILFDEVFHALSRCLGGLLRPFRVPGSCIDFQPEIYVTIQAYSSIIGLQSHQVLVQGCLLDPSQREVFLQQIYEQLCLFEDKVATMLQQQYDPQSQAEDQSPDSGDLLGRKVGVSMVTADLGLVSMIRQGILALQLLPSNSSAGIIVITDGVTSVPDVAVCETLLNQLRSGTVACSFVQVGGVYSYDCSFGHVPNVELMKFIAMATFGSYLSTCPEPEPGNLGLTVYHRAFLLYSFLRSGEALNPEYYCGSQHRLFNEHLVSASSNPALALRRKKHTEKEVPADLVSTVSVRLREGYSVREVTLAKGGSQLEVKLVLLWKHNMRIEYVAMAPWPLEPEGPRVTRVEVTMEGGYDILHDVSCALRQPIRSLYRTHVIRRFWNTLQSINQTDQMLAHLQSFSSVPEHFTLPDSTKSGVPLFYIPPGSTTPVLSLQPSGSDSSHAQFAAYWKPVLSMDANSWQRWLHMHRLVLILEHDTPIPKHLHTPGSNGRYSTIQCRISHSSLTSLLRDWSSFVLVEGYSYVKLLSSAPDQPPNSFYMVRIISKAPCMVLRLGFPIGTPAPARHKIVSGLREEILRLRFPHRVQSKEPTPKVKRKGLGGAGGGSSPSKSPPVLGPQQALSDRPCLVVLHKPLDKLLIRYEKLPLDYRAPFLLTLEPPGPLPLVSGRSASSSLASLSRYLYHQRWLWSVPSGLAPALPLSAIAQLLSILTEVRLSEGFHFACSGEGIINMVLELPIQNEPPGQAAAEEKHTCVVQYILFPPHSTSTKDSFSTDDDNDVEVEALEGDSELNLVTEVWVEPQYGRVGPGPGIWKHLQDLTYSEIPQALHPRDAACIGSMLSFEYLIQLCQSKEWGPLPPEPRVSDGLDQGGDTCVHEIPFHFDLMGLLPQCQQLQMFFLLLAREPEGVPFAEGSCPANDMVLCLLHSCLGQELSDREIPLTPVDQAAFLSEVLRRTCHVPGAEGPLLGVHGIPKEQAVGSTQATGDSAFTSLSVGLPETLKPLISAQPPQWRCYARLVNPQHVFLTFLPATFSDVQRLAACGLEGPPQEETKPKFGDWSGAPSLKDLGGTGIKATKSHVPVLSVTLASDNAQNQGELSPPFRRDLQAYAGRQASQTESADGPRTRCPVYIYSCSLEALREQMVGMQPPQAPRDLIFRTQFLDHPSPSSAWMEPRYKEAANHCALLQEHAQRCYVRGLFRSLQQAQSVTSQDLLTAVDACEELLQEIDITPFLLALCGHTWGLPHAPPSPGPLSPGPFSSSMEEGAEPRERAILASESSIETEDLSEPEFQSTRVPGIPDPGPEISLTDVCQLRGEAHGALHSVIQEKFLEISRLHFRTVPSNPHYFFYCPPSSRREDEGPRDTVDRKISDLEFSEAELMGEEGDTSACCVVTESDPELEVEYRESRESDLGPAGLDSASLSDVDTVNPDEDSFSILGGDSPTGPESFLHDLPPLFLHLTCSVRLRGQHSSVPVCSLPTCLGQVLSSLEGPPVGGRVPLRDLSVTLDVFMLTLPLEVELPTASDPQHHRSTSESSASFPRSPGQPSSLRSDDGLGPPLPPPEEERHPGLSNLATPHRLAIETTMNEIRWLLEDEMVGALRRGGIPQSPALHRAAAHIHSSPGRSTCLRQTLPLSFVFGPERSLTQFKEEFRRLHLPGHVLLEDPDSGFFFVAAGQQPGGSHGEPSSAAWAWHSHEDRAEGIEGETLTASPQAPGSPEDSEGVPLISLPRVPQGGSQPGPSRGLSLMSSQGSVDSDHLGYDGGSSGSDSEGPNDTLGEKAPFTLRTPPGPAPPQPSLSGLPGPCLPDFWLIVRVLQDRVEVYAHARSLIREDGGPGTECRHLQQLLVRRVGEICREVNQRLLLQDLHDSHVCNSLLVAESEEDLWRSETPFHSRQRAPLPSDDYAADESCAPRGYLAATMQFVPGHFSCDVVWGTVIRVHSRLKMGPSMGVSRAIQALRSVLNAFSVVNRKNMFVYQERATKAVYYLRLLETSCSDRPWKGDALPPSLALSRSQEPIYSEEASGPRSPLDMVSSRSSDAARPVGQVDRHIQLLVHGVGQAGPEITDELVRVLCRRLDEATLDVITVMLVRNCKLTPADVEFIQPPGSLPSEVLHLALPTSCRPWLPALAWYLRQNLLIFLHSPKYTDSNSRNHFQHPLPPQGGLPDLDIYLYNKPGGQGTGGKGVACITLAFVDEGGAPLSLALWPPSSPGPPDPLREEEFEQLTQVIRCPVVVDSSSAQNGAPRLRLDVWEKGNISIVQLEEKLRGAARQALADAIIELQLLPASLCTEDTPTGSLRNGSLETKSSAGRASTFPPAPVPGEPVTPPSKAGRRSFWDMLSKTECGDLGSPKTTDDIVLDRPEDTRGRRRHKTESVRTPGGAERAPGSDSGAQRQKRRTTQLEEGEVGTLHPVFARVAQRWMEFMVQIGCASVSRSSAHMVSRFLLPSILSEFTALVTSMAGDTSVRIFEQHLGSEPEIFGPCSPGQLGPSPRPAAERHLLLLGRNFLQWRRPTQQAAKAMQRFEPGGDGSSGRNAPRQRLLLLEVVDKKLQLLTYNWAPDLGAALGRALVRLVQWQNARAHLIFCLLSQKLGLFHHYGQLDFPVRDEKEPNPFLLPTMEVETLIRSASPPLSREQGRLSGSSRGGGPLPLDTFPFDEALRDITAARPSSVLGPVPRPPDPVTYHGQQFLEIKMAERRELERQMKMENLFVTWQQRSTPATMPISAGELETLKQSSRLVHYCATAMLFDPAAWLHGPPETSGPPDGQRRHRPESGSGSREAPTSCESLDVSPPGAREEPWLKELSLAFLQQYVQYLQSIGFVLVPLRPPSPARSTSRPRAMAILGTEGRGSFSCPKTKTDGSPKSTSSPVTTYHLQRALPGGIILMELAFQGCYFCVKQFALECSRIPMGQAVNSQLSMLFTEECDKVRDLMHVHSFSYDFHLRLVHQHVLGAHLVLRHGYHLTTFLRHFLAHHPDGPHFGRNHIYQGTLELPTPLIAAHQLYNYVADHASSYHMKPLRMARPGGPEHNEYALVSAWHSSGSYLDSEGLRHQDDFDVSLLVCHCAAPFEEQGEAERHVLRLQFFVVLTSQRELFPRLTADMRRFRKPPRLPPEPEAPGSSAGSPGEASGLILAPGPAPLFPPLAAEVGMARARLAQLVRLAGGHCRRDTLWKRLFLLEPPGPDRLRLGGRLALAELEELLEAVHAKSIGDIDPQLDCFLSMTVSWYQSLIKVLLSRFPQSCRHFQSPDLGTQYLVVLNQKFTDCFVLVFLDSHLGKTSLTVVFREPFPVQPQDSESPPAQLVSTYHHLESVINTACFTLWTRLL
UniProt O75140: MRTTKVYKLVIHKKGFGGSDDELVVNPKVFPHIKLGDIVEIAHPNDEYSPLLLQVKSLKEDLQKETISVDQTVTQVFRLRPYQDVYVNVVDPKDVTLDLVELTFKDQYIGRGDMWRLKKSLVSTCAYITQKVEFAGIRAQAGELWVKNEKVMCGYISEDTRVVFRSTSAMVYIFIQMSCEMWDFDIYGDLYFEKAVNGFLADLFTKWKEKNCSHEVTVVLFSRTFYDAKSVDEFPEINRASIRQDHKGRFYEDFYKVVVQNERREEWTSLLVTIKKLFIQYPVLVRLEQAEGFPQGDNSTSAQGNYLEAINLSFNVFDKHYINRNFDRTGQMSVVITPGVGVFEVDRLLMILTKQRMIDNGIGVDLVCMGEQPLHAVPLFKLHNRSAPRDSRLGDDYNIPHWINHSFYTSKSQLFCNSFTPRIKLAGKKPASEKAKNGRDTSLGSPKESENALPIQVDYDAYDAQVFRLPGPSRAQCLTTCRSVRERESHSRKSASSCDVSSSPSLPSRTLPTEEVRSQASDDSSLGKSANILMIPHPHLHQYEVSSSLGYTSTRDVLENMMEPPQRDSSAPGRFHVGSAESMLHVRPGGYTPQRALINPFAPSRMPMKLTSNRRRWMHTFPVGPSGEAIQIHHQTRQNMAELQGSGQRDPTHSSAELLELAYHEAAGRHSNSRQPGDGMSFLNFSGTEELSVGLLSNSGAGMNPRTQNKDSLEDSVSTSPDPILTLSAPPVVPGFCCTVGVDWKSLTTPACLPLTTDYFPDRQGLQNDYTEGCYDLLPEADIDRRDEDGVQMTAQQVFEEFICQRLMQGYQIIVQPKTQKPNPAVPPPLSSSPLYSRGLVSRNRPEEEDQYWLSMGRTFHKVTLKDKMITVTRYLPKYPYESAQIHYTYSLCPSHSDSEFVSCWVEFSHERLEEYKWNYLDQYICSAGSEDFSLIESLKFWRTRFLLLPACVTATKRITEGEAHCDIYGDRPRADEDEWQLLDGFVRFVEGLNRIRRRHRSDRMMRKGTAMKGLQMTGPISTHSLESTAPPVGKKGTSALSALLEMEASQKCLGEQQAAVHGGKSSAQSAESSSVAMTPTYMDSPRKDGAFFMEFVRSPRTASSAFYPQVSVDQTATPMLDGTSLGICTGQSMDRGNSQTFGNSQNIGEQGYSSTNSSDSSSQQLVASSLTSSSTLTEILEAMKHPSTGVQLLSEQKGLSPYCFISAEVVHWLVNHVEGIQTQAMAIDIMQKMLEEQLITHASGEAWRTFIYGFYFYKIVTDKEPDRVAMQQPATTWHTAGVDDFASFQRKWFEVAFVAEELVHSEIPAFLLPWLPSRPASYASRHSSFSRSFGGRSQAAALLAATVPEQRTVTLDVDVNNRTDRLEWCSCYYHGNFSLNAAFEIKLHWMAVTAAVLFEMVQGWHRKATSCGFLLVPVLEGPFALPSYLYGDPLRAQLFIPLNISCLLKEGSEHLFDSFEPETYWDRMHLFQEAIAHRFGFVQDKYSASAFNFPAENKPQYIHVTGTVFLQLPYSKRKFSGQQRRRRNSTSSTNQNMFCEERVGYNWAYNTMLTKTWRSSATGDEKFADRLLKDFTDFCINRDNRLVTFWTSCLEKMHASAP

The target in a further assay is T2, KPTN (no tag named) (UniProt Q9Y664).
T2 sequence: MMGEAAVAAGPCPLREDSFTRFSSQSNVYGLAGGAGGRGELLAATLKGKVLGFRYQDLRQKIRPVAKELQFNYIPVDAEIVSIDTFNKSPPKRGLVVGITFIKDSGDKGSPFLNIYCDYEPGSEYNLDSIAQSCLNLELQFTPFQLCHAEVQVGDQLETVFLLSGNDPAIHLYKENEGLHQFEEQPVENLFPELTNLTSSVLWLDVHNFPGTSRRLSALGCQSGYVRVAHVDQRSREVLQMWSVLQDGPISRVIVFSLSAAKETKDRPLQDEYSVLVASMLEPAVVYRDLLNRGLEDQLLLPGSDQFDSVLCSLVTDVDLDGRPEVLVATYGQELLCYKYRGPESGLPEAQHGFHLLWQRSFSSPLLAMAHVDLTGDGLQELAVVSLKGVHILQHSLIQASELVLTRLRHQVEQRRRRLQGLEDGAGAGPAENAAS
Put plainly: co-IP; cells transfected with siCtrl or siVWCE and the indicated cDNAs; Triton X-100 lysis buffer, FLAG or HA agarose beads 2 h at 4 °C, washes with 150 mM NaCl; immunoblotting. On the technique in general: In western blotting, separated proteins are transferred to a membrane and probed.

For assay [2], the target named is T1, FLAG-tagged VWCE (von Willebrand factor C and EGF domains). Put plainly: co-IP; cells transiently expressing the indicated cDNAs; amino acid starvation or restimulation before lysis; Triton X-100 lysis buffer, FLAG or HA agarose beads 2 h at 4 °C, washes with 150 mM NaCl; immunoblotting.

These are yes or no findings as the source states them, for the method shown. Binding seen in cells or lysates may run through a third protein. Some entries that bind do so weakly or less than the wild type. Sequences can lack the tags named with a protein.

B1: C12orf66 (no tag named) (protein, UniProt Q96MD2 1-445)
chain: MGESIPLAAPVPVEQAVLETFFSHLGIFSYDKAKDNVEKEREANKSAGGSWLSLLAALAHLAAAEKVYHSLTYLGQKLGGQSFFSRKDSIRTIYTSLHNELKKVVTGRGALGGTAPHVEELLSHLSEQLCFFVQARMEIADFYEKMYTLSTQKFINAEELVGLLDAIMKKYSSRFHHPILSPLESSFQLEVDVLCHLLKAQAQVSEWKFLPSLVNLHSAHTKLQTWGQIFEKQRETKKHLFGGQSQKAVQPPHLFLWLMKLKNMLLAKFSFYFHEALSRQTTASEMKTLTAKANPDFFGKISSFIRKYDAANVSLIFDNRGSESFQGHGYHHPHSYREAPKGVDQYPAVVSLPSDRPVMHWPNVIMIMTDRTSDLNSLEKVVHFYDDKVQSTYFLTRPEPHFTIVIIFESKKSERDSHFISFLNEVSLALKNPKVFASLKPGAKG
With B1, the binding result with SZT2 (no tag named) is “binds”.

B2: MIOS (protein, UniProt Q9NXC5 1-875)
chain: MSGTKPDILWAPHHVDRFVVCDSELSLYHVESTVNSELKAGSLRLSEDSAATLLSINSDTPYMKCVAWYLNYDPECLLAVGQANGRVVLTSLGQDHNSKFKDLIGKEFVPKHARQCNTLAWNPLDSNWLAAGLDKHRADFSVLIWDICSKYTPDIVPMEKVKLSAGETETTLLVTKPLYELGQNDACLSLCWLPRDQKLLLAGMHRNLAIFDLRNTSQKMFVNTKAVQGVTVDPYFHDRVASFYEGQVAIWDLRKFEKPVLTLTEQPKPLTKVAWCPTRTGLLATLTRDSNIIRLYDMQHTPTPIGDETEPTIIERSVQPCDNYIASFAWHPTSQNRMIVVTPNRTMSDFTVFERISLAWSPITSLMWACGRHLYECTEEENDNSLEKDIATKMRLRALSRYGLDTEQVWRNHILAGNEDPQLKSLWYTLHFMKQYTEDMDQKSPGNKGSLVYAGIKSIVKSSLGMVESSRHNWSGLDKQSDIQNLNEERILALQLCGWIKKGTDVDVGPFLNSLVQEGEWERAAAVALFNLDIRRAIQILNEGASSEKGDLNLNVVAMALSGYTDEKNSLWREMCSTLRLQLNNPYLCVMFAFLTSETGSYDGVLYENKVAVRDRVAFACKFLSDTQLNRYIEKLTNEMKEAGNLEGILLTGLTKDGVDLMESYVDRTGDVQTASYCMLQGSPLDVLKDERVQYWIENYRNLLDAWRFWHKRAEFDIHRSKLDPSSKPLAQVFVSCNFCGKSISYSCSAVPHQGRGFSQYGVSGSPTKSKVTSCPGCRKPLPRCALCLINMGTPVSSCPGGTKSDEKVDLSKDKKLAQFNNWFTWCHNCRHGGHAGHMLSWFRDHAECPVSACTCKCMQLDTTGNLVPAETVQP
Turning to B2, in the assay with HA-DEPDC5, the binding entry is listed as “binds”.

B3: HA-tagged ITFG2 (protein, UniProt Q969R8 1-447)
chain: MRSVSYVQRVALEFSGSLFPHAICLGDVDNDTLNELVVGDTSGKVSVYKNDDSRPWLTCSCQGMLTCVGVGDVCNKGKNLLVAVSAEGWFHLFDLTPAKVLDASGHHETLIGEEQRPVFKQHIPANTKVMLISDIDGDGCRELVVGYTDRVVRAFRWEELGEGPEHLTGQLVSLKKWMLEGQVDSLSVTLGPLGLPELMVSQPGCAYAILLCTWKKDTGSPPASEGPTDGSRETPAARDVVLHQTSGRIHNKNVSTHLIGNIKQGHGTESSGSGLFALCTLDGTLKLMEEMEEADKLLWSVQVDHQLFALEKLDVTGNGHEEVVACAWDGQTYIIDHNRTVVRFQVDENIRAFCAGLYACKEGRNSPCLVYVTFNQKIYVYWEVQLERMESTNLVKLLETKPEYHSLLQELGVDPDDLPVTRALLHQTLYHPDQPPQCAPSSLQDPT
For B3, the binding entry in assay [1] is on record as “binds”.

B4: ITFG2 (no tag named) (protein, UniProt Q969R8 1-447)
chain: MRSVSYVQRVALEFSGSLFPHAICLGDVDNDTLNELVVGDTSGKVSVYKNDDSRPWLTCSCQGMLTCVGVGDVCNKGKNLLVAVSAEGWFHLFDLTPAKVLDASGHHETLIGEEQRPVFKQHIPANTKVMLISDIDGDGCRELVVGYTDRVVRAFRWEELGEGPEHLTGQLVSLKKWMLEGQVDSLSVTLGPLGLPELMVSQPGCAYAILLCTWKKDTGSPPASEGPTDGSRETPAARDVVLHQTSGRIHNKNVSTHLIGNIKQGHGTESSGSGLFALCTLDGTLKLMEEMEEADKLLWSVQVDHQLFALEKLDVTGNGHEEVVACAWDGQTYIIDHNRTVVRFQVDENIRAFCAGLYACKEGRNSPCLVYVTFNQKIYVYWEVQLERMESTNLVKLLETKPEYHSLLQELGVDPDDLPVTRALLHQTLYHPDQPPQCAPSSLQDPT
Regarding B4, in the assay with KPTN (no tag named), the binding entry is given as “binds”.

B5: HA-tagged KPTN (protein, UniProt Q9Y664 1-436)
chain: MMGEAAVAAGPCPLREDSFTRFSSQSNVYGLAGGAGGRGELLAATLKGKVLGFRYQDLRQKIRPVAKELQFNYIPVDAEIVSIDTFNKSPPKRGLVVGITFIKDSGDKGSPFLNIYCDYEPGSEYNLDSIAQSCLNLELQFTPFQLCHAEVQVGDQLETVFLLSGNDPAIHLYKENEGLHQFEEQPVENLFPELTNLTSSVLWLDVHNFPGTSRRLSALGCQSGYVRVAHVDQRSREVLQMWSVLQDGPISRVIVFSLSAAKETKDRPLQDEYSVLVASMLEPAVVYRDLLNRGLEDQLLLPGSDQFDSVLCSLVTDVDLDGRPEVLVATYGQELLCYKYRGPESGLPEAQHGFHLLWQRSFSSPLLAMAHVDLTGDGLQELAVVSLKGVHILQHSLIQASELVLTRLRHQVEQRRRRLQGLEDGAGAGPAENAAS
As for B5, the binding result in assay [2] and in assay [1] was “binds” each time.

B6: KPTN (no tag named) (protein, UniProt Q9Y664 1-436)
chain: MMGEAAVAAGPCPLREDSFTRFSSQSNVYGLAGGAGGRGELLAATLKGKVLGFRYQDLRQKIRPVAKELQFNYIPVDAEIVSIDTFNKSPPKRGLVVGITFIKDSGDKGSPFLNIYCDYEPGSEYNLDSIAQSCLNLELQFTPFQLCHAEVQVGDQLETVFLLSGNDPAIHLYKENEGLHQFEEQPVENLFPELTNLTSSVLWLDVHNFPGTSRRLSALGCQSGYVRVAHVDQRSREVLQMWSVLQDGPISRVIVFSLSAAKETKDRPLQDEYSVLVASMLEPAVVYRDLLNRGLEDQLLLPGSDQFDSVLCSLVTDVDLDGRPEVLVATYGQELLCYKYRGPESGLPEAQHGFHLLWQRSFSSPLLAMAHVDLTGDGLQELAVVSLKGVHILQHSLIQASELVLTRLRHQVEQRRRRLQGLEDGAGAGPAENAAS
As for B6, the binding entry in the assay with HA-DEPDC5 and in the assay with SZT2 (no tag named) was “binds” throughout.

(Values after publication PMC10733324.)
